Results taken from US20250018014A1, “METHOD FOR TREATING AND/OR PREVENTING REGNASE-1-RELATED DISEASE” (OSAKA UNIVERSITY, priority 2018, published 2025).
Some of these results come from one statement about several compounds together. Residues, ends and D or L forms follow the SMILES beside them.

Key:
[1] = molecular target: T1, FL_Reg1 (full-length human Regnase-1) phosphorylation by TBK1 (Homo sapiens, UniProt Q5D1E8); assay: Regnase-1 phosphorylation inhibition by compounds (AlphaScreen), TBK1, full-length Regnase-1; format: biochemical; details: concentration-dependent
T1 construct: made in house; host or cells: Expi293 cells
T1 sequence (Q5D1E8 1-599): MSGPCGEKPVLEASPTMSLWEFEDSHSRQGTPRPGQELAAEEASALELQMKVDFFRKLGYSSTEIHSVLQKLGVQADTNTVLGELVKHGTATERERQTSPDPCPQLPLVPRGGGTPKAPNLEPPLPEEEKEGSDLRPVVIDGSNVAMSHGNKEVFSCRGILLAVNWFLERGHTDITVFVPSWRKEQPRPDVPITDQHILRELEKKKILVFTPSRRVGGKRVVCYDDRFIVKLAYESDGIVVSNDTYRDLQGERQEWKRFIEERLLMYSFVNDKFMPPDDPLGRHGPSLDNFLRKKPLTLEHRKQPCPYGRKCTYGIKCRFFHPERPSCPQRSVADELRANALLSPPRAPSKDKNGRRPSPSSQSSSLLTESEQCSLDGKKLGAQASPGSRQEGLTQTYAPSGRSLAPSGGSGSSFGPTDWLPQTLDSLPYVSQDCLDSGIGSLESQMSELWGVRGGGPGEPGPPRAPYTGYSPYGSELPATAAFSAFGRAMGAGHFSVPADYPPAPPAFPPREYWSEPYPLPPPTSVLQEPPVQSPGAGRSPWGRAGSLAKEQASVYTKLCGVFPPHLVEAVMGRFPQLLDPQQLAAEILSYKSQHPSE
From the text: (§1) The full-length sequence of human Regnase-1 (UniProt ID: Q5D1E8) was used to prepare a construct having a FLAG tag on the N-terminal side and a recognition sequence for biotin ligase BirA on the C-terminal side (FL_Reg1) as a target protein. The above-mentioned Regnase-1 was expressed in mammalian Expi293 cells, purified with FLAG M2 agarose, and isolated by gel filtration chromatography. When biotinylation was required, methods from nonpatent documents (BMC biotechnology, 2008,8,41; and Protein Science, 1999,8,921-929) were used. […]
(§2) Using Kinase assay buffer III (manufactured by SignalChem) supplemented with 2 mM DTT, 100 μM sodium vanadate, and 2 mM manganese chloride, kinase (IKKβ (manufactured by SignalChem) or TBK1 (manufactured by SignalChem)) and Regnase-1 were reacted in the presence of 10 μM ATP at room temperature for 2 hours to perform a phosphorylation reaction.
(§3) Phosphorylated Regnase-1 was detected by the AlphaScreen system. After each of the above-mentioned phosphorylated Regnase-1 antibodies was added and reacted at room temperature for one hour, anti-FLAG AlphaLISA Acceptor Beads (manufactured by PerkinElmer) and Protein A AlphaScreen Donor Beads (manufactured by PerkinElmer) were added, and EnVision (manufactured by PerkinElmer) was used to measure the excited luminescence. As a result, phosphorylated Regnase-1 produced by the phosphorylation reaction by kinase was specifically detected, and signals were confirmed to be enhanced in a manner dependent on Regnase-1 and kinase concentrations (FIG. 24).
(§4) After mixing 2 nM of the above-mentioned Regnase-1 and the compound, phosphorylated Regnase-1 produced by the phosphorylation reaction was detected by the AlphaScreen system. As the results, the inhibition rate was calculated from the signals obtained when adding the compound at each concentration, by defining the signal obtained with Regnase-1 alone to be 100% inhibition rate, and the signal obtained when the same amount of solvent (DMSO) is added in place of the compound as 0% inhibition rate. The 50% inhibition concentration (μM) was calculated from the obtained dose response curve (Table 11).

[2] = molecular target: T2, FL_Reg1 (full-length human Regnase-1) phosphorylation by IKKβ (Homo sapiens, UniProt Q5D1E8); assay: Regnase-1 phosphorylation inhibition by compounds (AlphaScreen), IKKβ, full-length Regnase-1; format: biochemical; details: concentration-dependent
T2 construct: made in house; host or cells: Expi293 cells
T2 sequence (Q5D1E8 1-599): T1 sequence (Q5D1E8 1-599)
From the text: as §1, §2, §3, §4

| SMILES | inhibition of phosphorylation of full-length Regnase-1 (FL_Reg1) by TBK1, in words [1] | inhibition of phosphorylation of full-length Regnase-1 (FL_Reg1) by IKKβ, in words [2] |
| --- | --- | --- |
| CC[C@H](C)[C@@H]1NC(=O)[C@H](CCCNC(=N)N)NC(=O)[C@H](Cc2ccc(O)cc2)NC(=O)[C@H](Cc2c[nH]c3ccccc23)NC(=O)[C@H](CO)NC(=O)[C@H](CC(N)=O)NC(=O)[C@H](C)N(C)C(=O)C[C@@H](C(=O)N2CCCC2)NC(=O)[C@H](CC(C)C)NC(=O)CNC(=O)[C@H](Cc2c[nH]c3ccccc23)NC1=O [PP22] (HELM PEPTIDE1{[meA].N.S.W.Y.R.I.W.G.L.D.[C1CCN([*:1])C1]}$PEPTIDE1,PEPTIDE1,1:R1-11:R3$$$V2.0) | all showed inhibitory activity | all showed inhibitory activity |
| CC[C@H](C)[C@@H]1NC(=O)[C@H](CC(N)=O)NC(=O)[C@H](Cc2ccc(O)cc2)NC(=O)[C@H](Cc2c[nH]c3ccccc23)NC(=O)[C@H](CO)NC(=O)[C@H](CC(N)=O)NC(=O)[C@H](CO)NC(=O)[C@H](Cc2ccccc2)NC(=O)[C@H](CC(N)=O)NC(=O)[C@H](C)N(C)C(=O)C[C@@H](C(=O)N2CCCC2)NC(=O)[C@H](Cc2c[nH]c3ccccc23)NC1=O [PP16] (HELM PEPTIDE1{[meA].N.F.S.N.S.W.Y.N.I.W.D.[C1CCN([*:1])C1]}$PEPTIDE1,PEPTIDE1,1:R1-12:R3$$$V2.0) | all showed inhibitory activity | all showed inhibitory activity |
| CC[C@H](C)[C@@H]1NC(=O)[C@H](CC(N)=O)NC(=O)[C@H]([C@@H](C)CC)NC(=O)[C@H](Cc2ccc(O)cc2)NC(=O)[C@H](Cc2c[nH]c3ccccc23)NC(=O)[C@H](CO)NC(=O)[C@H](CC(N)=O)NC(=O)[C@H](C)N(C)C(=O)C[C@@H](C(=O)N2CCCC2)NC(=O)[C@H](Cc2c[nH]cn2)NC(=O)CNC(=O)[C@H](Cc2c[nH]c3ccccc23)NC1=O [PP15] (HELM PEPTIDE1{[meA].N.S.W.Y.I.N.I.W.G.H.D.[C1CCN([*:1])C1]}$PEPTIDE1,PEPTIDE1,1:R1-12:R3$$$V2.0) | all showed inhibitory activity | all showed inhibitory activity |
| CC[C@H](C)[C@@H]1NC(=O)[C@H](CCCCN)NC(=O)[C@H](Cc2ccc(O)cc2)NC(=O)[C@H](Cc2c[nH]c3ccccc23)NC(=O)[C@H](CO)NC(=O)[C@H](CC(N)=O)NC(=O)[C@H](C)N(C)C(=O)C[C@@H](C(=O)N2CCCC2)NC(=O)[C@H](CC(C)C)NC(=O)CNC(=O)[C@H](Cc2c[nH]c3ccccc23)NC1=O [PP21] (HELM PEPTIDE1{[meA].N.S.W.Y.K.I.W.G.L.D.[C1CCN([*:1])C1]}$PEPTIDE1,PEPTIDE1,1:R1-11:R3$$$V2.0) | all showed inhibitory activity | all showed inhibitory activity |
| CC(C)[C@@H]1NC(=O)[C@H](Cc2c[nH]c3ccccc23)NC(=O)[C@H](CCCCN)NC(=O)[C@H](Cc2c[nH]c3ccccc23)NC(=O)[C@H](CCC(N)=O)NC(=O)[C@H](CCCNC(=N)N)NC(=O)[C@H](Cc2ccccc2)NC(=O)[C@H](CCCNC(=N)N)NC(=O)[C@H](C)N(C)C(=O)C[C@@H](C(=O)N2CCCC2)NC(=O)[C@@H]2CCCN2C(=O)[C@H](Cc2ccc(O)cc2)NC1=O [PP13] (HELM PEPTIDE1{[meA].R.F.R.Q.W.K.W.V.Y.P.D.[C1CCN([*:1])C1]}$PEPTIDE1,PEPTIDE1,1:R1-12:R3$$$V2.0) | all showed inhibitory activity | all showed inhibitory activity |
